{"source": "PubChem BioAssay AID1259283 (Sanger Institute, 2017)", "aim": "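Kinases needed for HT115 growth and partners for drug synergy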 (primary screen)", "cell system": "HT115 colorectal cancer cells", "reagent": "siRNA pool against human genes", "challenge": "anchor drug given one day after siRNA: BYL719 at 1 µM, cetuximab at 5 µg/ml, trametinib at 10 nM, or DMSO vehicle alone", "detection": "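Per-drug synergy scores plus replicate-mean viability relative to non-targeting pool #2 wells, also expressed as a robust z-score based on control wells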", "scale": "robust z-score, knock-down alone: higher = more viable cells after knock-down; viability, DMSO vs non-targeting control: higher = more viable cells", "units": "viability, DMSO vs non-targeting control in fraction of control", "active means": "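Essential gene: robust z-score less than -3 with no drug added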", "calls": "active = essential (z below -3, no drug); inactive = no change without drug", "note": "Here is an unselected part of 794 reagents. Of all reagents, 14 (1.8%) got an active call. 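Calls reflect only viability loss without drug; drug synergy does not enter the call.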 Unmarked entries are inactive. Viability is capped at 1. Not all columns of the deposit are shown. Not stated in the record: the amount of reagent, the time to read-out."}
{"gene": "MYLK (myosin light chain kinase)", "robust z-score, knock-down alone": -0.0632, "viability, DMSO vs non-targeting control": 0.921}
{"gene": "TTBK2 (tau tubulin kinase 2)", "robust z-score, knock-down alone": -0.539, "viability, DMSO vs non-targeting control": 0.877}
{"gene": "MAP3K5 (mitogen-activated protein kinase kinase kinase 5)", "robust z-score, knock-down alone": 0.789, "viability, DMSO vs non-targeting control": 1}
{"gene": "EFNB3 (ephrin B3)", "robust z-score, knock-down alone": -1.68, "viability, DMSO vs non-targeting control": 0.771}
{"gene": "NEK3 (NIMA related kinase 3)", "robust z-score, knock-down alone": -0.777, "viability, DMSO vs non-targeting control": 0.855}
{"gene": "CSNK1D (casein kinase 1 delta)", "robust z-score, knock-down alone": 0.409, "viability, DMSO vs non-targeting control": 0.965}
{"gene": "GNE", "robust z-score, knock-down alone": -0.448, "viability, DMSO vs non-targeting control": 0.886}
{"gene": "KCNH2 (potassium voltage-gated channel subfamily H member 2)", "robust z-score, knock-down alone": -0.257, "viability, DMSO vs non-targeting control": 0.903}
{"gene": "PRKAR2A", "robust z-score, knock-down alone": -0.259, "viability, DMSO vs non-targeting control": 0.903}
{"gene": "TJP2 (tight junction protein 2)", "robust z-score, knock-down alone": 0.621, "viability, DMSO vs non-targeting control": 0.984}
{"gene": "RIPK4 (receptor interacting serine/threonine kinase 4)", "robust z-score, knock-down alone": 0.789, "viability, DMSO vs non-targeting control": 1}
{"gene": "FGFR1 (fibroblast growth factor receptor 1)", "robust z-score, knock-down alone": 0.59, "viability, DMSO vs non-targeting control": 0.982}
{"gene": "NRK (Nik related kinase)", "robust z-score, knock-down alone": 0.486, "viability, DMSO vs non-targeting control": 0.972}
{"gene": "CDK16 (cyclin dependent kinase 16)", "robust z-score, knock-down alone": -0.387, "viability, DMSO vs non-targeting control": 0.891}
{"gene": "PRKD2 (protein kinase D2)", "robust z-score, knock-down alone": 0.481, "viability, DMSO vs non-targeting control": 0.972}
{"gene": "CDKN1C (cyclin dependent kinase inhibitor 1C)", "robust z-score, knock-down alone": -0.272, "viability, DMSO vs non-targeting control": 0.902}
{"gene": "TAF1L (TATA-box binding protein associated factor 1 like)", "robust z-score, knock-down alone": -0.0606, "viability, DMSO vs non-targeting control": 0.921}
{"gene": "BMAL1 (basic helix-loop-helix ARNT like 1)", "robust z-score, knock-down alone": 0.00517, "viability, DMSO vs non-targeting control": 0.928}
{"gene": "IPMK (inositol polyphosphate multikinase)", "robust z-score, knock-down alone": 0.789, "viability, DMSO vs non-targeting control": 1}
{"gene": "BMX (BMX non-receptor tyrosine kinase)", "robust z-score, knock-down alone": 0.284, "viability, DMSO vs non-targeting control": 0.953}
{"gene": "STK32B (serine/threonine kinase 32B)", "robust z-score, knock-down alone": -0.828, "viability, DMSO vs non-targeting control": 0.851}
{"gene": "MAP2K7 (mitogen-activated protein kinase kinase 7)", "robust z-score, knock-down alone": 0.767, "viability, DMSO vs non-targeting control": 0.998}
{"gene": "GSK3B (glycogen synthase kinase 3 beta)", "robust z-score, knock-down alone": 0.789, "viability, DMSO vs non-targeting control": 1}
{"gene": "TTBK1 (tau tubulin kinase 1)", "robust z-score, knock-down alone": 0.618, "viability, DMSO vs non-targeting control": 0.984}
{"gene": "TAOK1 (TAO kinase 1)", "robust z-score, knock-down alone": -0.0924, "viability, DMSO vs non-targeting control": 0.919}
{"gene": "MTOR (mechanistic target of rapamycin kinase)", "robust z-score, knock-down alone": 0.789, "viability, DMSO vs non-targeting control": 1}
{"gene": "MAPKAPK3 (MAPK activated protein kinase 3)", "robust z-score, knock-down alone": -1.57, "viability, DMSO vs non-targeting control": 0.782}
{"gene": "CKB (creatine kinase B)", "robust z-score, knock-down alone": 0.789, "viability, DMSO vs non-targeting control": 1}
{"gene": "MAP3K1 (mitogen-activated protein kinase kinase kinase 1)", "robust z-score, knock-down alone": 0.314, "viability, DMSO vs non-targeting control": 0.956}
{"gene": "PCK1 (phosphoenolpyruvate carboxykinase 1)", "robust z-score, knock-down alone": 0.277, "viability, DMSO vs non-targeting control": 0.953}
{"gene": "RPS6KB1 (ribosomal protein S6 kinase B1)", "robust z-score, knock-down alone": 0.789, "viability, DMSO vs non-targeting control": 1}
{"gene": "PNCK (pregnancy up-regulated nonubiquitous CaM kinase)", "robust z-score, knock-down alone": 0.789, "viability, DMSO vs non-targeting control": 1}
{"gene": "IPPK (inositol-pentakisphosphate 2-kinase)", "robust z-score, knock-down alone": -0.823, "viability, DMSO vs non-targeting control": 0.851}
{"gene": "CDC73 (cell division cycle 73)", "robust z-score, knock-down alone": -0.698, "viability, DMSO vs non-targeting control": 0.863}
{"gene": "NTRK1 (neurotrophic receptor tyrosine kinase 1)", "robust z-score, knock-down alone": -2.1, "viability, DMSO vs non-targeting control": 0.733}
{"gene": "RPS6KA3 (ribosomal protein S6 kinase A3)", "robust z-score, knock-down alone": 0.613, "viability, DMSO vs non-targeting control": 0.984}

A portion taken from the entries so far, for reference:
{"gene": "NEK3 (NIMA related kinase 3)", "robust z-score, knock-down alone": -0.777, "viability, DMSO vs non-targeting control": 0.855}
{"gene": "CSNK1D (casein kinase 1 delta)", "robust z-score, knock-down alone": 0.409, "viability, DMSO vs non-targeting control": 0.965}
{"gene": "GNE", "robust z-score, knock-down alone": -0.448, "viability, DMSO vs non-targeting control": 0.886}
{"gene": "KCNH2 (potassium voltage-gated channel subfamily H member 2)", "robust z-score, knock-down alone": -0.257, "viability, DMSO vs non-targeting control": 0.903}
